Reference: PubChem BioAssay AID1259254 (NCATS, 2017)
Screen: 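Finding genes that stop cells copying their DNA twice in one cycle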 (primary screen). Cell system: human HCT116 colorectal cancer cells. Reagents: single siRNA against human genes. Timing: 3 days. Measured: 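Nuclei stained with Hoechst and imaged; cell-cycle phase assigned by DNA content; G2 share scaled per plate, non-targeting siRNA 0%, GMNN siRNA 100%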. Direction: G2 robust z-score: higher = more G2 cells, more excess DNA replication. Active means: 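An siRNA counts as active if its G2 robust z-score lies at least 5 MADs above the screen median; here such calls match roughly 38% of GMNN control or more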.
Here is a random part of about 59,000 deposited reagents. About 1,550 of them (2.6%) count as active. 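G2 share is only a proxy for re-replication; each gene was hit by three separate siRNAs, and active genes were retested.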 The numbers tell different reagents against one gene apart. Not all columns of the deposit are shown. The record does not give: the amount of reagent.

G2 robust z-score, by gene knocked down and reagent
LMO7DN: #1 0.181 inactive; #2 -0.471 inactive; #3 -0.433 inactive
CYP4V2: #1 0.726 inactive; #2 3.6 inactive; #3 4.01 inactive
TESMIN: #1 2.55 inactive; #2 -0.746 inactive; #3 -1.08 inactive
PHF24: #1 -0.741 inactive; #2 -0.284 inactive; #3 2.58 inactive
HELQ: #1 0.972 inactive; #2 1.34 inactive; #3 1.05 inactive

3 of these entries, reformatted:
{"gene knocked down": "CYP4V2", "reagent no.": 2, "G2 robust z-score": 3.6, "call": "inactive"}
{"gene knocked down": "CYP4V2", "reagent no.": 3, "G2 robust z-score": 4.01, "call": "inactive"}
{"gene knocked down": "TESMIN", "reagent no.": 1, "G2 robust z-score": 2.55, "call": "inactive"}

Continued:
G2 robust z-score, by gene knocked down and reagent
LMAN2L: #1 5.92 active; #2 1.4 inactive; #3 -0.707 inactive
TMTC3: #1 0.546 inactive; #2 -1 inactive; #3 -0.713 inactive
PMPCA: #1 -0.0354 inactive; #2 -1.41 inactive; #3 -1.35 inactive
PARP4: #1 0.355 inactive; #2 0.107 inactive; #3 1.17 inactive
RPS14P3: #1 4.58 inactive; #2 5.08 active; #3 1.33 inactive
